Reference: patent publication US20100092982A1 (University of California, published 2010)
Changes are numbered by the printed parent chain. These are yes or no findings as the source states them, for the method shown. Binding seen in cells or lysates may run through a third protein. Some results given as binding are weak or reduced against the parent protein; the word gives no strength. For part of these data: Sequences can lack the tags named with a protein. One block for each molecule: values may come before it.

Chains of the proteins cited; added tags and fusions are not shown. Lines headed by an entry give the natural chain unless they say otherwise; changes in a name come on top. Residues count along the entry.
UniProt Q15788: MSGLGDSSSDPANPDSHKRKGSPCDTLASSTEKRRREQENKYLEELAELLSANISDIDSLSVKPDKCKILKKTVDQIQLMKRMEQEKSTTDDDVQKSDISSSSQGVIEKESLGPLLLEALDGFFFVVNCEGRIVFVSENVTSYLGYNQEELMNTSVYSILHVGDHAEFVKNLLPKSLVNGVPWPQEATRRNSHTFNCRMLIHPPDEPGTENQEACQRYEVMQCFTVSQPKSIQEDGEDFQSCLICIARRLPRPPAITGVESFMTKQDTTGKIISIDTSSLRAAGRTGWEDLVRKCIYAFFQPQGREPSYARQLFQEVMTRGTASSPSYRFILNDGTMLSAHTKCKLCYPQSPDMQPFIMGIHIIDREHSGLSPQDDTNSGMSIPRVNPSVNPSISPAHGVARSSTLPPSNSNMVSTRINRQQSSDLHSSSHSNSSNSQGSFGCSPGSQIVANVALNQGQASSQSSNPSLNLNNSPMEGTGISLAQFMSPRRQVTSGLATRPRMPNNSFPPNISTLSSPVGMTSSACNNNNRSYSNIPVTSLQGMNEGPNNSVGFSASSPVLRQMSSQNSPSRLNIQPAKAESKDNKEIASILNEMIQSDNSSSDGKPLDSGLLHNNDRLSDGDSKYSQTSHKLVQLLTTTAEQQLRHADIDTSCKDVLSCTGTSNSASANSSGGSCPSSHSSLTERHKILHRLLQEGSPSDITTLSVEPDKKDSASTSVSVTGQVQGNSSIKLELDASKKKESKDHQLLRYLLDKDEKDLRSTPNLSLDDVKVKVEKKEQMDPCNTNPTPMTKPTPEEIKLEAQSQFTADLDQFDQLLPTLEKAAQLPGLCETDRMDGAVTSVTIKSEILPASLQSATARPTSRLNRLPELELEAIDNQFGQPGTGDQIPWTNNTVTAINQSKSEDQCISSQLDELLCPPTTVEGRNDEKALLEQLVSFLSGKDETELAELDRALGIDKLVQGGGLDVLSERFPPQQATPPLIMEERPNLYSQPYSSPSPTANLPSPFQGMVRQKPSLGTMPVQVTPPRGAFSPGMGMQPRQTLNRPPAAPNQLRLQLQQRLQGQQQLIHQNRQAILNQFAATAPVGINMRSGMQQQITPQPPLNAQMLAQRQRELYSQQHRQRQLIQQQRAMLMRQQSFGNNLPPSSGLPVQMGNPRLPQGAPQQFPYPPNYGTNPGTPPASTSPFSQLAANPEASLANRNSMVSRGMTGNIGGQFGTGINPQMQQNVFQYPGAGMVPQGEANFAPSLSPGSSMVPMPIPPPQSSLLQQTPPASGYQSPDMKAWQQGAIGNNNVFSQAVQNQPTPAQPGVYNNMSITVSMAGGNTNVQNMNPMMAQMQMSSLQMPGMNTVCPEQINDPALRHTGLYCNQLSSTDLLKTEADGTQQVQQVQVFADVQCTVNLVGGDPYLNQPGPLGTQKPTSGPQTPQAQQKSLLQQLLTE
UniProt Q9Y6Q9: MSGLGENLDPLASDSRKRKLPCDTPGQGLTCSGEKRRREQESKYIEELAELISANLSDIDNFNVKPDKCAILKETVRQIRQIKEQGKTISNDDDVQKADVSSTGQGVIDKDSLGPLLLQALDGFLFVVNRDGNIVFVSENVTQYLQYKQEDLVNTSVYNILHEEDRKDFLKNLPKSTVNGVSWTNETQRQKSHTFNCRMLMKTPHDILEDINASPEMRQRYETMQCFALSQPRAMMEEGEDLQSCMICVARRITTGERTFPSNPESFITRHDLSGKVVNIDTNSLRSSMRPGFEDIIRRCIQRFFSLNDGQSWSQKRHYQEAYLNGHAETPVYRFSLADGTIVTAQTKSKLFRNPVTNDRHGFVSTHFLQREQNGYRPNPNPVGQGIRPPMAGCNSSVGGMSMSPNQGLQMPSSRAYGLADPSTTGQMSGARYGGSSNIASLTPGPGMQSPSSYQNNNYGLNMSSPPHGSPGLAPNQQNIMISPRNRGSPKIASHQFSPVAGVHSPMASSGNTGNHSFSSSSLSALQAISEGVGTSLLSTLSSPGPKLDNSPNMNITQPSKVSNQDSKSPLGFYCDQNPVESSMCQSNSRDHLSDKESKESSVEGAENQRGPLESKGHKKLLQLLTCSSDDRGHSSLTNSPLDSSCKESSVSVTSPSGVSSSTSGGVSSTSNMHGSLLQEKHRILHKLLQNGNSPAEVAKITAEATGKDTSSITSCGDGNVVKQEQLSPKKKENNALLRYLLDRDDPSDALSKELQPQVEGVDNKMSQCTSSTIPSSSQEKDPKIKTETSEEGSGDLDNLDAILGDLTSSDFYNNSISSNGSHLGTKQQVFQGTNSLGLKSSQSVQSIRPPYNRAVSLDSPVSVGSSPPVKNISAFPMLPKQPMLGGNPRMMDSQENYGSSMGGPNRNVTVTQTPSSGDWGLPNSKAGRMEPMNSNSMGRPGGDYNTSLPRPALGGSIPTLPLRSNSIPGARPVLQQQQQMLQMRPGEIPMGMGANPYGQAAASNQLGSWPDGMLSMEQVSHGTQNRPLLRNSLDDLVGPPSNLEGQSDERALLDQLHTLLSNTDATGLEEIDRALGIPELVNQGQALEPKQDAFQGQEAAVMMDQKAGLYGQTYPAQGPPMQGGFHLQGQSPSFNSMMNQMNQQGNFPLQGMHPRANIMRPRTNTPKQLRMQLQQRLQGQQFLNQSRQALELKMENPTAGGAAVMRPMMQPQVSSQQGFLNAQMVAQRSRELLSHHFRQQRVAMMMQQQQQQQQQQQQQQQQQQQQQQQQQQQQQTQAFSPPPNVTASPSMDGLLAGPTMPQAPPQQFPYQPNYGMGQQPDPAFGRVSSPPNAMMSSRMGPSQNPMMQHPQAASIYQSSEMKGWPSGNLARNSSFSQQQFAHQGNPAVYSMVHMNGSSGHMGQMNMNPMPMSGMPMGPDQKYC
UniProt Q61026: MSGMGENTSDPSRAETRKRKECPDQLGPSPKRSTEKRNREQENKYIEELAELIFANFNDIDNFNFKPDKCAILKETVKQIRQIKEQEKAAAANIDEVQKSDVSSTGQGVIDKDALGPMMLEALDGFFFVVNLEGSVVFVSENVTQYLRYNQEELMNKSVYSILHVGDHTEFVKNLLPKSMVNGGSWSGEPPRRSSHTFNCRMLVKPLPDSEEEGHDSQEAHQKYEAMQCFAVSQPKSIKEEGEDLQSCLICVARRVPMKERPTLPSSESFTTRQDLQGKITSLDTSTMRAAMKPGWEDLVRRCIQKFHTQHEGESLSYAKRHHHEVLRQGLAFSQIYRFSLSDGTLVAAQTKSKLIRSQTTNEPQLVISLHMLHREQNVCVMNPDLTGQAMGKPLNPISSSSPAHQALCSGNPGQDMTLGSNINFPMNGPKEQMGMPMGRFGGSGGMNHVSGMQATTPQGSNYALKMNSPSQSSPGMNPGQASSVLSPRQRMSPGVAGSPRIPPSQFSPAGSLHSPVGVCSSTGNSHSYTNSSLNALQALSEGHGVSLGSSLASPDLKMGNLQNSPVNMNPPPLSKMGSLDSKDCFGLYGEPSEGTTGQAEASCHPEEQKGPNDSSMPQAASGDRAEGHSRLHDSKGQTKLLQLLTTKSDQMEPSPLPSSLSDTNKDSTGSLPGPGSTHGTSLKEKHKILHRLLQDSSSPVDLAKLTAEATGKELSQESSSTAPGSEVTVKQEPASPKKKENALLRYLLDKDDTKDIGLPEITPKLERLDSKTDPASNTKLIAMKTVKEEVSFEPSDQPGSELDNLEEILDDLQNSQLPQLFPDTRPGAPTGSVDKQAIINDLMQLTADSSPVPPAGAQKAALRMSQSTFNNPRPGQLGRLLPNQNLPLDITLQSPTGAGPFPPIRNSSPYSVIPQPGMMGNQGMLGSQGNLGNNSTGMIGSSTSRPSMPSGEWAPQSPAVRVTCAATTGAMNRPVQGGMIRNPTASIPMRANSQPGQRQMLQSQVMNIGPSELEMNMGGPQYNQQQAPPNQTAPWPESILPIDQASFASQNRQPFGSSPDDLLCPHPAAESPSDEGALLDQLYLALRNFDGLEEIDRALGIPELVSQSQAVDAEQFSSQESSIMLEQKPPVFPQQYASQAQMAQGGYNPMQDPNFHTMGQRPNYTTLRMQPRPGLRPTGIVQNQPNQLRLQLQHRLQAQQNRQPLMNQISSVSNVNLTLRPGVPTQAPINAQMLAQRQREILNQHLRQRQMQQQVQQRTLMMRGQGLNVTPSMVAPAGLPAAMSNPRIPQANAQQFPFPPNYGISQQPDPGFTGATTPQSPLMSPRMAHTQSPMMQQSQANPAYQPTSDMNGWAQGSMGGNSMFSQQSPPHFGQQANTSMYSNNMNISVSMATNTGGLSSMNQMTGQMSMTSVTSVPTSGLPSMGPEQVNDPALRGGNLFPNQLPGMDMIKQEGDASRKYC
GRIP1 (5-1462) (full length), from pSG5.HA-GRIP1: residues 5-1462 of Q61026

What was measured:
[1] = target: T1, CARM1 (full length, translated in vitro from pSG5.HA-CARM1) (mouse); experiment: GST pull-down on glutathione agarose beads, labeled in vitro translated protein, SDS-PAGE
T1 sequence: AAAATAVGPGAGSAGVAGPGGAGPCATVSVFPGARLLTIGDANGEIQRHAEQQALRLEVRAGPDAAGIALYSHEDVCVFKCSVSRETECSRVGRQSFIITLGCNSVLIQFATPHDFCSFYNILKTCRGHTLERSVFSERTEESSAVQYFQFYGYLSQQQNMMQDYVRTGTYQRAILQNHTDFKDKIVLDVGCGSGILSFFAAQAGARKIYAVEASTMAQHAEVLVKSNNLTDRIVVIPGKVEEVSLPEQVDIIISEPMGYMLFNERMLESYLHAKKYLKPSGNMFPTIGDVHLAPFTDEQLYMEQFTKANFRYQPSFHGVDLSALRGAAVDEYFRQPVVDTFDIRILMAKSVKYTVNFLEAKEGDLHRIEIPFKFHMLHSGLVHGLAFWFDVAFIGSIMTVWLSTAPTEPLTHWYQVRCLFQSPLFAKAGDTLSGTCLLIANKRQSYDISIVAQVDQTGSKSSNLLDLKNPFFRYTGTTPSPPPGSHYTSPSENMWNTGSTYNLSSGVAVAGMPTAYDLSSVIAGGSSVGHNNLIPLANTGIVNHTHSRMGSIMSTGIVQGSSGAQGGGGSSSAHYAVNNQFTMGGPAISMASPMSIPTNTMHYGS

[2] = target: T2, CARM1 VLD mutant (VLD to AAA mutant of CARM1) (mouse); experiment: as above
T2 sequence: T1 sequence with V187A, L188A, D189A

[3] = target: SRC-1a (1-1441) (full length), from pSG5.HA-SRC-1a (UniProt Q15788); experiment: as above
[4] = target: ACTR, from pCMX.ACTR (UniProt Q9Y6Q9); experiment: as above
[5] = target: GRIP1 (5-1462) (full length), from pSG5.HA-GRIP1 (UniProt Q61026); experiment: as above
[6] = target: GRIP1c (amino acids 1122-1462), translated in vitro (UniProt Q61026); experiment: as above
[7] = target: GST-GRIP1c (amino acids 1122-1462) (UniProt Q61026); experiment: GST pull-down
[8] = target: GST-GRIP1c (amino acids 1122-1462) (UniProt Q61026); experiment: GST pull-down (figure legend)

B2: CARM1 VLD mutant (VLD to AAA mutant of CARM1) (enzyme, not shown: small tags and cut ends)
chain: T1 sequence with V187A, L188A, D189A
binding [7]: binds | binding [8]: binds

B3: CARM1 (full length, translated in vitro from pSG5.HA-CARM1) (enzyme, not shown: small tags and cut ends)
chain: T1 sequence
binding [8]: binds

Next, values leading:

binding [1]: binds | binding [2]: binds
Molecule: GST-GRIP1c (amino acids 1122-1462) (from UniProt Q61026 1122-1462)

binding [3]: binds | binding [4]: binds | binding [5]: binds | binding [6]: binds
B1: GST-CARM1 (enzyme)
chain: T1 sequence
notes: also called GST fusion protein of CARM1; glutathione S-transferase-CARM1; not shown: glutathione S-transferase (GST) as encoded by vector pGEX-4T1 (Pharmacia)
